{"source": "PubChem BioAssay AID602196 | INSERM, 2012", "screen": "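Modifiers of cisplatin sensitivity in A549 cells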", "system": "human A549 lung cancer cells", "reagents": "siRNA pair against human genes", "time to read-out": "48 h transfection before cisplatin; time from cisplatin to read-out not stated", "treatment": "cisplatin at a dose killing half of control-siRNA cells; exact dose and duration not given", "read-out": "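Cisplatin cell death as a shift from the 50% death seen with control siRNA; siRNAs toxic or growth-blocking alone scored 0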", "reading the numbers": "two-siRNA summed score (-2 to +2): higher = both siRNAs protect from cisplatin killing; -2 means both sensitise", "call rule": "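siRNAs harmful alone (LDH or WST-1) get 0; others get +1 for less and -1 for more cisplatin killing; genes are active when the two siRNAs give the same sign, summing to ±2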", "calls": "active = both siRNAs shift cisplatin killing the same way; inactive = no consistent shift, or siRNA harmful alone", "note": "The deposit covers about 23,000 reagents; shown is a random part of them. In the full data, 455 (2%) got an active call. 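Active includes both protection and sensitisation; some change values fall well beyond the stated -50 to +50 range.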 Not all columns of the deposit are shown. Reagent sequences are not shown. The record does not give: the amount of reagent."}
{"target": "TFEC (transcription factor EC)", "two-siRNA summed score (-2 to +2)": -2, "Call": "active"}
{"target": "NDRG4 (NDRG family member 4)", "two-siRNA summed score (-2 to +2)": 0, "Call": "inactive"}
{"target": "CFAP36 (cilia and flagella associated protein 36)", "two-siRNA summed score (-2 to +2)": 0, "Call": "inactive"}
{"target": "NUP50 (nucleoporin 50)", "two-siRNA summed score (-2 to +2)": 0, "Call": "inactive"}
{"target": "CENPT (centromere protein T)", "two-siRNA summed score (-2 to +2)": 0, "Call": "inactive"}
{"target": "LOC389473 (chromosome 5 open reading frame 13 pseudogene)", "two-siRNA summed score (-2 to +2)": 0, "Call": "inactive"}
{"target": "RPRD1B (regulation of nuclear pre-mRNA domain containing 1B)", "two-siRNA summed score (-2 to +2)": 1, "Call": "inactive"}
{"target": "LRRC46 (leucine rich repeat containing 46)", "two-siRNA summed score (-2 to +2)": 1, "Call": "inactive"}
{"target": "ALLC (allantoicase)", "two-siRNA summed score (-2 to +2)": 0, "Call": "inactive"}
{"target": "SHTN1 (shootin 1)", "two-siRNA summed score (-2 to +2)": 0, "Call": "inactive"}
{"target": "AGGF1 (angiogenic factor with G-patch and FHA domains 1)", "two-siRNA summed score (-2 to +2)": 0, "Call": "inactive"}
{"target": "ALG8 (ALG8 alpha-1,3-glucosyltransferase)", "two-siRNA summed score (-2 to +2)": 0, "Call": "inactive"}
{"target": "LLGL2 (LLGL scribble cell polarity complex component 2)", "two-siRNA summed score (-2 to +2)": 0, "Call": "inactive"}
{"target": "UBE2E1 (ubiquitin conjugating enzyme E2 E1)", "two-siRNA summed score (-2 to +2)": 0, "Call": "inactive"}
{"target": "OR51G2 (olfactory receptor family 51 subfamily G member 2)", "two-siRNA summed score (-2 to +2)": 0, "Call": "inactive"}
{"target": "LILRB2 (leukocyte immunoglobulin like receptor B2)", "two-siRNA summed score (-2 to +2)": 0, "Call": "inactive"}
{"target": "LOC390234", "two-siRNA summed score (-2 to +2)": 0, "Call": "inactive"}
{"target": "STH (saitohin)", "two-siRNA summed score (-2 to +2)": 0, "Call": "inactive"}
{"target": "LOC129870", "two-siRNA summed score (-2 to +2)": 1, "Call": "inactive"}
{"target": "FBXL2 (F-box and leucine rich repeat protein 2)", "two-siRNA summed score (-2 to +2)": -1, "Call": "inactive"}
{"target": "CXCL5 (C-X-C motif chemokine ligand 5)", "two-siRNA summed score (-2 to +2)": 0, "Call": "inactive"}
{"target": "ZMYND11 (zinc finger MYND-type containing 11)", "two-siRNA summed score (-2 to +2)": -1, "Call": "inactive"}
{"target": "STAM2 (signal transducing adaptor molecule 2)", "two-siRNA summed score (-2 to +2)": 1, "Call": "inactive"}
{"target": "DPY30 (dpy-30 histone methyltransferase complex regulatory subunit)", "two-siRNA summed score (-2 to +2)": 0, "Call": "inactive"}
{"target": "ZBTB3 (zinc finger and BTB domain containing 3)", "two-siRNA summed score (-2 to +2)": 0, "Call": "inactive"}
{"target": "MTHFD2L", "two-siRNA summed score (-2 to +2)": 1, "Call": "inactive"}
{"target": "GCSAM (germinal center associated signaling and motility)", "two-siRNA summed score (-2 to +2)": 0, "Call": "inactive"}
{"target": "FBXL5 (F-box and leucine rich repeat protein 5)", "two-siRNA summed score (-2 to +2)": -1, "Call": "inactive"}
{"target": "ZNF28 (zinc finger protein 28)", "two-siRNA summed score (-2 to +2)": 1, "Call": "inactive"}
{"target": "MTPAP (mitochondrial poly(A) polymerase)", "two-siRNA summed score (-2 to +2)": 0, "Call": "inactive"}
{"target": "HOXB9 (homeobox B9)", "two-siRNA summed score (-2 to +2)": 0, "Call": "inactive"}
{"target": "MRPS7 (mitochondrial ribosomal protein S7)", "two-siRNA summed score (-2 to +2)": 0, "Call": "inactive"}
{"target": "LTV1 (LTV1 ribosome biogenesis factor)", "two-siRNA summed score (-2 to +2)": 1, "Call": "inactive"}
{"target": "CDCP2 (CUB domain containing protein 2)", "two-siRNA summed score (-2 to +2)": 1, "Call": "inactive"}
{"target": "MVB12A (multivesicular body subunit 12A)", "two-siRNA summed score (-2 to +2)": 1, "Call": "inactive"}
{"target": "LOC400969", "two-siRNA summed score (-2 to +2)": 0, "Call": "inactive"}
{"target": "ADGRE1 (adhesion G protein-coupled receptor E1)", "two-siRNA summed score (-2 to +2)": -1, "Call": "inactive"}
{"target": "PRPS2 (phosphoribosyl pyrophosphate synthetase 2)", "two-siRNA summed score (-2 to +2)": 1, "Call": "inactive"}
{"target": "C11orf16 (chromosome 11 open reading frame 16)", "two-siRNA summed score (-2 to +2)": 1, "Call": "inactive"}
{"target": "ALKBH5 (alkB homolog 5, RNA demethylase)", "two-siRNA summed score (-2 to +2)": -1, "Call": "inactive"}

6 consecutive records already listed, for reference:
{"target": "MRPS7 (mitochondrial ribosomal protein S7)", "two-siRNA summed score (-2 to +2)": 0, "Call": "inactive"}
{"target": "LTV1 (LTV1 ribosome biogenesis factor)", "two-siRNA summed score (-2 to +2)": 1, "Call": "inactive"}
{"target": "CDCP2 (CUB domain containing protein 2)", "two-siRNA summed score (-2 to +2)": 1, "Call": "inactive"}
{"target": "MVB12A (multivesicular body subunit 12A)", "two-siRNA summed score (-2 to +2)": 1, "Call": "inactive"}
{"target": "LOC400969", "two-siRNA summed score (-2 to +2)": 0, "Call": "inactive"}
{"target": "ADGRE1 (adhesion G protein-coupled receptor E1)", "two-siRNA summed score (-2 to +2)": -1, "Call": "inactive"}
